According to patent US20170367390A1, “USE OF ELLAGIC ACID DIHYDRATE IN FOOD PRODUCTS AND NUTRACEUTICALS” (HALO LIFE SCIENCE, LLC, priority 2014, published 2017):
For at least one compound, name, drawing or mass did not settle the structure.

Key:
[1] = system: MEF cells; assay: Glucose uptake, 2-NBDG labeling, flow cytometry, MEFs; type: cell-based, mouse; conditions: equal concentrations of insulin
Description: Cellular assays were performed using mouse myoblast C2C12 cells and MEF cells. […] Increased glucose uptake was indicated as increasing signal of 2-NBDG ([…]) in cells. Glucose uptake assays were carried out in a final incubation volume of 50 μl consisting of, 2-NBDG), (100 μM) in 1× Phosphate Buffered Saline w/Ca+, Mg+ (PBS++). The same buffer was used for washing cells. Insulin was used as a positive control. All testing compounds were prepared in 10% DMSO and diluted 1:100 for a final concentration of 0.1% DMSO (vehicle). Cells were culture to 70-90% confluence and then washed twice with PBS++. Cells were incubated for 30 minutes at 37° C. in PBS++. Nuclear stain, HCS CellMask stain (blue, Invitrogen), and/or testing compounds (ellagic acid dihydrate, insulin, or vehicle) were added. Cells were incubated for 30 min at 37° C. Cells were washed twice with PBS++ and incubated with 2-NBDG for 10 minutes. Cells were washed thrice with PBS++ and then imaged in PBS++. Alternatively, the final PBS wash was removed and cells were incubated with Accutase (Invitrogen) for 10 min at 37° C., neutralized with 10% FBS in 1×PBS, and analyzed by flow cytometry. […] Glucose uptake in ellagic acid dihydrate treated cell culture was measured and compared to glucose uptake under insulin or ellagic acid treatment. […]

[2] = system: mouse myoblast C2C12 cells; assay: Glucose uptake, 2-NBDG labeling, flow cytometry, C2C12; type: cell-based; conditions: C2C12, equal concentrations of insulin
Description: Cellular assays were performed using mouse myoblast C2C12 cells and MEF cells. […] Increased glucose uptake was indicated as increasing signal of 2-NBDG ([…]) in cells. Glucose uptake assays were carried out in a final incubation volume of 50 μl consisting of, 2-NBDG), (100 μM) in 1× Phosphate Buffered Saline w/Ca+, Mg+ (PBS++). The same buffer was used for washing cells. Insulin was used as a positive control. All testing compounds were prepared in 10% DMSO and diluted 1:100 for a final concentration of 0.1% DMSO (vehicle). Cells were culture to 70-90% confluence and then washed twice with PBS++. Cells were incubated for 30 minutes at 37° C. in PBS++. Nuclear stain, HCS CellMask stain (blue, Invitrogen), and/or testing compounds (ellagic acid dihydrate, insulin, or vehicle) were added. Cells were incubated for 30 min at 37° C. Cells were washed twice with PBS++ and incubated with 2-NBDG for 10 minutes. Cells were washed thrice with PBS++ and then imaged in PBS++. Alternatively, the final PBS wash was removed and cells were incubated with Accutase (Invitrogen) for 10 min at 37° C., neutralized with 10% FBS in 1×PBS, and analyzed by flow cytometry. An additional experiment was performed to measure glucose uptake in C2Cl2 cells exposed to metformin, insulin and ellagic acid dihydrate 2 (batch 2). FIG. 5C.

With `O.O.O=c1oc2c(O)c(O)cc3c(=O)oc4c(O)c(O)cc1c4c23` [ellagic acid dihydrate] the “concentrations at which uptake exceeding insulin was significant” value [1] was 4 nM-4 μM and the “concentrations at which uptake exceeding insulin was significant” value [2] was 4 nM-4 μM.
